Test results published in PubChem BioAssay AID485318 (Broad Institute, 2010).
Fewer than 10 of roughly 1,400 compounds were called active.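 Rule for the calls: active = fluorescence-lowering compounds whose fitted half-maximal concentration is at or below ten times the highest valid dose tested; inconclusive = flat curve at 30 to 70% inhibition, or poor fit; inactive = the rest.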 Some of the results follow.

By UniProt entry, the sequences of proteins in these tests, tags left out. Where a name states a change or a piece, a line headed by the entry shows the natural chain unless it says otherwise.
UniProt O15379: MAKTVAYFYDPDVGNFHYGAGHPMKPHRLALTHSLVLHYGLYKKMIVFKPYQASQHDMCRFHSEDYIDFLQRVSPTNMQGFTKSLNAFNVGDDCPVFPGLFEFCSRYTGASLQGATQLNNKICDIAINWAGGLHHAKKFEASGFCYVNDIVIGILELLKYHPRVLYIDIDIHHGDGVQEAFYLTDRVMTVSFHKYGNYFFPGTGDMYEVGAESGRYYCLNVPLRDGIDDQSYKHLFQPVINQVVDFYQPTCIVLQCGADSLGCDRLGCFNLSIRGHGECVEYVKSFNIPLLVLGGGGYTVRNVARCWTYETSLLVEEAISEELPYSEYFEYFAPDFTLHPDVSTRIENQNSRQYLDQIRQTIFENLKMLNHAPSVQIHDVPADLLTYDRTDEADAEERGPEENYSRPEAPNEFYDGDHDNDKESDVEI

What follows are molecules tested against Histone deacetylase 3 (Homo sapiens) (UniProt O15379) (assay: HDAC3 deacetylase inhibitors, dose response, counter-screen for JMJD2C/GASC1 demethylase inhibitor project, biochemical, fluorescence, cherry-picked samples (AID 485318;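 note: enzyme preincubated with compound before substrate and trypsin were added; 0% = neutral control wells and -100% = SAHA positive control wells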)). Conditions: recombinant HDAC3, fluorogenic peptide/trypsin coupled; at 12 µM (top of the series).

SMILES | activity change, negative = inhibition
C#CCOCCOCCOCCNc1nc(N2CCN(C(=O)[C@H](CCC(=O)O)n3cc([C@@H](N)CCCCN)nn3)CC2)nc(N2CCN(C(=O)[C@H](CCC(=O)O)n3cc([C@@H](N)CCCCN)nn3)CC2)n1 | inactive: -0.665%
CN(C(=O)COc1ccccc1)c1nnc(-c2ccncc2)s1 | inactive: 0.797%
C[C@H](CO)N1C[C@H](C)[C@@H](CN(C)S(=O)(=O)c2ccccc2)Oc2c(NC(=O)CCC(F)(F)F)cccc2C1=O | inactive: 0.587%
COc1ccc(/C(C)=N/Nc2nccnc2Cl)cc1 | inactive: 0.584%
Cc1cccc(NS(=O)(=O)c2cccc3nsnc23)c1 | inactive: 0.0826%
Cc1cc(=O)[nH]c(CN2CCOCC2)n1 | inactive: 0.884%
COc1ccc(OC)c(/C=C2\SC(=S)N(Cc3cccnc3)C2=O)c1 | inactive: 0.203%
Cc1ccc(C(=O)Nc2sc3c(c2C(=O)O)CCCC3)o1 | inactive: -0.148%
N#C/C(N=Nc1ccccc1O)=N\Nc1ccccc1O | inactive: 0.341%
Cn1c(=O)c2c(nc(NC3CCCCC3)n2Cc2ccccc2)n(C)c1=O | inactive: 0.361%
CC(=O)N(C)C1=C(N2CCOCC2)C(=O)c2ccccc2C1=O | inactive: 0.32%
C[C@@]12C(=O)Nc3cc(F)c(F)cc3C(=O)N1[C@H]1c3cc(Cl)ccc3OC[C@@H]1[C@@H]2c1ccccc1 | inactive: 0.00585%
CCCCn1c(=O)[nH]c(=O)c2c1nc(-c1cc(Cl)c(OC)c(OC)c1)n2C | inactive: 1.11%
CCC(CC)NC(=O)CSc1nnc(-c2ccc(OC)cc2)n1C(C)C | inactive: 0.191%
O=c1n(Cc2ccccc2)c2cc(Cl)cnc2n1Cc1ccccc1 | inactive: -0.29%
CC[C@@]1(C(=O)OC)N[C@H](CN(C)C(=O)Nc2ccc(C)cc2)[C@@H]2C(=O)N(C)C(=O)[C@@H]21 | inactive: 0.71%
C[C@H](CO)N1C[C@H](C)[C@@H](CN(C)Cc2ccncc2)Oc2c(NC(=O)Cc3ccccc3)cccc2C1=O | inactive: 0.369%
CC#CCOC(=O)c1c(C)nc2sc3c(c2c1N)CCC(O)C3 (configuration not stated) | inactive: 0.329%
C=CCOc1ccc(C(=O)NC2CCCCC2)cc1 | inactive: -0.562%
Cn1c(=O)[nH]c(=O)c2c1nc(N1CCc3ccccc3C1)n2CCSc1nc2ccccc2s1 | inactive: -0.287%
CC(=O)N=c1sccn1CC(=O)c1ccc([N+](=O)[O-])cc1 | inactive: 0.58%
CCOC(=O)C1CCN(S(=O)(=O)c2cccc(-c3cn4cc(Cl)ccc4n3)c2)CC1 | inactive: 0.424%
COc1ccc(NC(=O)Nc2c[nH]c(=O)[nH]c2=O)cc1OC | inactive: -0.634%
O=C(c1cccc(-n2cccc2)c1)N1CCN(S(=O)(=O)c2c(F)cccc2F)CC1 | inactive: -0.285%

SMILES | activity change, negative = inhibition
Cc1ccc(C(=O)NCCCCNC(=O)c2ccc(C)o2)o1 | inactive: 0.494%
Cc1cccc2c1-c1sc(C(=O)Nc3cccc([N+](=O)[O-])c3C)cc1CO2 | inactive: 0.313%
Cn1cccc1-c1nc2ccc(NC(=O)c3cccs3)cc2[nH]1 | inactive: -0.389%
C[C@H](CO)N1C[C@H](C)[C@@H](CN(C)C(=O)NC2CCCCC2)Oc2c(NC(=O)c3ccncc3)cccc2C1=O | inactive: 0.748%
Cn1c2ccccc2c2c(C(=O)N3CCN(c4ccccn4)CC3)cn(C3CCCC3)c(=O)c21 | inactive: 0.168%
O=C(NCc1cccc(F)c1)C1CCN(S(=O)(=O)Cc2ccccc2)CC1 | inactive: 0.13%
C[C@@H]1CC[C@]2(C(=O)O[C@@H]3O[C@H](CO)[C@@H](O)[C@H](O)[C@H]3O)CC[C@]3(C)C(=CCC4[C@@]5(C)C[C@@H](O)[C@H](O)[C@@](C)(C(=O)O[C@@H]6[C@H](O)C[C@@]7(C)C(CC[C@]8(C)C7CC=C7[C@H]9[C@](C(=O)O[C@@H]%10O[C@H](CO)[C@@H](O)[C@H](O)[C@H]%10O)(CC[C@@H](C)[C@@]9(C)O)CC[C@]78C)[C@@]6(CO)C(=O)O)C5CC[C@]43C)[C@@H]2[C@]1(C)O (some centres not stated) | inactive: 0.0643%
O=C(O)c1ccc(/C=N/Nc2cccc(C(F)(F)F)c2)cc1 | inactive: 0.56%
Cc1oc(C(C)(C)C)cc1C(=O)N1CCN(c2ncccc2C(F)(F)F)CC1 | inactive: 0.445%
Cn1c(SCC(=O)Nc2cc(S(=O)(=O)N3CCOCC3)ccc2N2CCOCC2)nnc1-c1ccncc1 | inactive: 0.574%
O=C(N/N=C/c1cc([N+](=O)[O-])cc([N+](=O)[O-])c1O)C(O)(c1ccccc1)c1ccccc1 | inactive: 0.322%
COC(=O)[C@]1(C)N[C@H](CN(C)C(=O)Nc2ccc(C)cc2)[C@@H]2C(=O)N(Cc3ccccc3)C(=O)[C@@H]21 | inactive: 0.516%
Cc1ccc(NC(=O)c2ccc(OC(=O)CCN3C(=O)c4ccccc4C3=O)cc2)cc1 | inactive: 0.646%
CCCCN(CC)S(=O)(=O)c1ccc(C(=O)Nc2nnc(COC)o2)cc1 | inactive: 0.523%
Cc1cc(N(C)C)cc(C)[n+]1[O-] | inactive: 1.03%
Cn1c(CNC(=O)c2ccccc2F)nnc1SCC(=O)Nc1nnc(C2CC2)s1 | inactive: 0.0357%
CC(=O)Nc1n[nH]c(-c2ccc(C)cc2)c1C | inactive: 0.164%
C[C@@H]1CN([C@H](C)CO)C(=O)c2cccc(NC(=O)c3ccncc3)c2O[C@@H]1CN(C)Cc1ccc(C(=O)O)cc1 | inactive: -0.337%
CC(=O)N1CCN(c2ccc(NC(=O)c3ccc4ccccc4c3)cc2)CC1 | inactive: 0.314%
CCS(=O)(=O)N1CCCC(C(=O)NCCCN2CCCC2=O)C1 (configuration not stated) | inactive: -0.0791%
CCOC(=O)N1CCc2c(sc3nc4n(c(=O)c23)N=C(C)CS4)C1 | inactive: -0.111%
C#CCOCCOCCOCCNc1nc(N2CCN(C(=O)[C@H](CCCCN)n3cc([C@@H](N)[C@H](C)CC)nn3)CC2)nc(N2CCN(C(=O)[C@H](CCC(=O)O)n3cc([C@@H](N)CCSC)nn3)CC2)n1 | inactive: -0.115%
CC(=O)C1=C(c2ccccc2)N(C(C)=O)n2c(C)nnc2S1 | inactive: -0.262%

Three structures out of the list, ordered by SMILES length, low to high:
SMILES | activity change, negative = inhibition
CCCCN(CC)S(=O)(=O)c1ccc(C(=O)Nc2nnc(COC)o2)cc1 | inactive: 0.523%
Cc1ccc(NC(=O)c2ccc(OC(=O)CCN3C(=O)c4ccccc4C3=O)cc2)cc1 | inactive: 0.646%
O=C(N/N=C/c1cc([N+](=O)[O-])cc([N+](=O)[O-])c1O)C(O)(c1ccccc1)c1ccccc1 | inactive: 0.322%
